Among the data in patent US20210244721A1, “SMALL MOLECULE ENTEROVIRUS INHIBITORS AND USES THEREOF” (priority 2020, published 2021) are EC50 and ΔTm values, retold here.

Sequences of proteins named here, by UniProt entry; tags and fusion partners are left off. Residues count along the entry.
UniProt P03313, 1137-1429: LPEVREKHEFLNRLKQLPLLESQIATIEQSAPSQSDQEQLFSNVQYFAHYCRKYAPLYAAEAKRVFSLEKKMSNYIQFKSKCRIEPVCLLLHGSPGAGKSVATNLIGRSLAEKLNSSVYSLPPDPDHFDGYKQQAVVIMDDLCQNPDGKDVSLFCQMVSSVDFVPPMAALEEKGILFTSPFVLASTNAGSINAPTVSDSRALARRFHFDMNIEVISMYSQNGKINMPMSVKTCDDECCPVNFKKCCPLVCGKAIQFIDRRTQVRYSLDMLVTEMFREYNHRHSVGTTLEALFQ

Bounds are passed on as bounds.

One assay concerns EV-A71 Tainan/4643/98. The assay is described as follows: CPE assay, EV-A71 Tainan in RD cells. The assay is classed as cell-based. Conditions: Enterovirus A, EVA71.
The next assay relates to CVB3. Description: CPE assay, CVB3 in Vero C1008 cells. It is filed as cell-based, coxsackievirus B3 (CVB3). Conditions: Enterovirus B.
The next assay has as its target T1, CVB3 2C protein (Coxsackievirus B3, UniProt P03313).
T1 construct: CVB3 Nancy 2C (amino acids 37 to 329) protein; His tag with TEV site (inferred from the pET28a(+)-TEV vector and Ni-NTA purification); made in house; host or cells: E. coli Rosetta 2(DE3)
Description: Thermal shift assay (differential scanning fluorimetry). The assay is classed as binding. Conditions: CVB3 2C 4.5 μM, read-out: Tm shift. For orientation: Differential scanning fluorimetry follows unfolding on heating by fluorescence.

As for `CNCCC(Oc1ccc(C(F)(F)F)cc1)c1ccccc1` (stereo not drawn) [drawing 196], the values for the EC50 with EV-A71 Tainan/4643/98 and with CVB3 were greater than 10000 nM and 2100 nM, respectively.
With `CNCCC(Oc1ccc(C(F)(F)F)cc1)c1ccccc1` (stereo not drawn) [fluoxetine], the ΔTm at 100 µM at CVB3 2C protein amounted to 1.31 °C.
